Experimental findings from the supplement of paper PMC4604168 (melanoma cell lines) are described below.

SMILES strings stand for the structures. This is one part of the list. Many values rest on one well or one pass, so single values are uncertain.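 Imaging used 1,536-well plates; nuclei positive for cleaved PARP by antibody were divided by total DNA-stained nuclei to yield the apoptosis fraction. Doses for screening kept most cells viable, and cell lines differ markedly in resting and induced cleaved-PARP levels.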

The experiment deals with RVH-421. The experiment in a line: cleaved PARP positive nuclei fraction relative to DMSO control; melanoma cells; higher = more apoptosis. Conditions: library dose: low library concentration; 72 h.
As for `Cc1ccc(Nc2nccc(N(C)c3ccc4c(C)n(C)nc4c3)n2)cc1S(N)(=O)=O` [Pazopanib] + CN(NC(=O)CC(=O)NN(C)C(=S)c1ccccc1)C(=S)c1ccccc1 [STA4783] (first compound 0.4 µM, partner dose 0.006 µM), the “cleaved PARP positive nuclei fraction” value is 57.2%. For `Cc1cn(-c2cc(NC(=O)c3ccc(C)c(Nc4nccc(-c5cccnc5)n4)c3)cc(C(F)(F)F)c2)cn1` [nilotinib] + COc1ccc(COc2ccc(Cc3cnc(N)nc3N)cc2OC)cc1 [GW2580] (first compound 0.2 µM, partner dose 1 µM) the value was 69.8%.

`COc1cc([C@@H]2c3cc4c(cc3[C@@H](O[C@@H]3O[C@@H]5CO[C@@H](C)O[C@H]5[C@H](O)[C@H]3O)[C@H]3COC(=O)[C@H]23)OCO4)cc(OC)c1O` [etoposide] + C[C@@H]1CCN(C(=O)CC#N)C[C@@H]1N(C)c1ncnc2[nH]ccc12 [CP690550] (first compound 0.02 µM, partner dose 1 µM): the “cleaved PARP positive nuclei fraction” value came to 145%. In the case of `Cc1cn(-c2cc(NC(=O)c3ccc(C)c(Nc4nccc(-c5cccnc5)n4)c3)cc(C(F)(F)F)c2)cn1` [nilotinib] + Cn1cc(/C=C2\C(=O)Nc3cccnc32)c2ccccc21 [GW441756] (first compound 0.2 µM, partner dose 0.4 µM) it was 35.8%. In the case of `Cc1cn(-c2cc(NC(=O)c3ccc(C)c(Nc4nccc(-c5cccnc5)n4)c3)cc(C(F)(F)F)c2)cn1` [nilotinib] + O=c1cc(-c2cccc3c2Sc2ccccc2S3)oc(N2CCOCC2)c1 [KU55933] (first compound 0.2 µM, partner dose 1 µM) it was 48.9%.
